# Screening data, single-dose tests

Sequences of proteins named here, by UniProt entry; tags and fusion partners are left off.
UniProt P9WPC5, whole entry: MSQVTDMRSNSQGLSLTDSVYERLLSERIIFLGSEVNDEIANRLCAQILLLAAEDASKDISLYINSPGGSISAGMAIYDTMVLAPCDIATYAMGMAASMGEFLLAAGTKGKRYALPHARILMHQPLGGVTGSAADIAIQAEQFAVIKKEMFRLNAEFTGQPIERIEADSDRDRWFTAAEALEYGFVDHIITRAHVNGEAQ
UniProt P9WPC3, whole entry partner: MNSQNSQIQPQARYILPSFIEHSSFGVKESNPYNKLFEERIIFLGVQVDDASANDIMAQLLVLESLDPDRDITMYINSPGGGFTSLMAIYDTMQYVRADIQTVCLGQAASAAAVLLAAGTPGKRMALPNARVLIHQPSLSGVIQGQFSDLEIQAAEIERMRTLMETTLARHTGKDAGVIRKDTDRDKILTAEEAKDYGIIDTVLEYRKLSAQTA

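Protease assay of ClpP1P2, read by the AMC dye that it sets free. Target: ClpP1P2, Mycobacterium tuberculosis (UniProt P9WPC5 and UniProt P9WPC3). Compounds at 50 µM. Higher reads as stronger inhibition, judged from the few compounds that gave an IC50. Most other retested compounds had strongly negative values. Size under these conditions: about 69,000 compounds, about 10 of them at 50% or above in at least one test.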

The filed quantity is “Percent Effect” (%). The controls that fix the scale are not given in the record; negative values are as filed. This is an unselected part of the compounds tested.

SMILES	Percent Effect
Cn1nc2c(cc1=O)CN(CC(=O)Nc1nccs1)CC2	-9.753
Cc1occc1-c1nnc2n1NC(N)=C(C#N)S2	-12.19
COc1ccc2cc(C(=O)N3CC[C@H](CO)[C@H](O)C3)n(C)c2c1	-5.468
OCCCc1nncn1-c1cccc(C(F)(F)F)c1	2.533
O=C(C1CCC1)N1CCC2(CCNCC2)C1	-3.861
Cc1ccc(CNCc2nnc3n2CCCC3C(F)(F)F)s1 (centres undefined)	7.197
CC(C)c1cncnc1-c1cc(F)cc2c1OC(CN)C2 (centres undefined)	2.035
Cc1c(Cl)c(C(=O)N2CC[C@H](N3CCOCC3)[C@H](CCCO)C2)nn1C	-5.056
Cc1nc(-c2ccc(Cl)s2)sc1C(=O)NCCS(N)(=O)=O	-18.32
Cc1ccccc1C(=O)N1CCC(n2nnc3cc(F)ccc32)CC1	4.755
CCC(O)CN1CCN(C(=O)c2cccc(CC#N)c2)CC1 (centres undefined)	-13.3
CC(C)n1cc(S(=O)(=O)N2CCCCC2)cn1	6.741
O=C(c1cnccn1)N1C[C@@H]2CCN(c3cccnc3)C[C@@H]2C1	-4.778
Cc1nc(C)n(CC2CN(CCCOc3ccc(F)cc3)CCO2)n1 (centres undefined)	-9.481
O=C(O)[C@]12CN(CC3CCC3)C[C@H]1CN(c1cnccn1)C2	-7.096
O=C(CCNC(=O)c1cnccn1)Nc1ncc[nH]1	-1.458
Cc1cc(N2CC[C@H](O)C2)n2nc(C)c(C)c2n1	-17.66
COCc1nc(C(=O)N2CCCC2c2c(C)nn(C)c2C)cs1 (centres undefined)	-2.254
COC(=O)N1CCCCC1C(=O)N(C)Cc1cc(-c2cccnc2)no1 (centres undefined)	-3.886
CCN1CCN(S(=O)(=O)N2CCCCCC2)[C@H]2CS(=O)(=O)C[C@H]21	6.781
c1cncc(COCC2C[C@@H]3OCCN(Cc4cccnc4)[C@H]3C2)c1 (some centres undefined)	6.783
CN1CCN2C[C@@H](CO)[C@H](c3ccccc3)[C@H]2C1	3.763
CCC(=O)N1CCC2(CC1)CC(CC(N)=O)c1ccc(F)cc12 (centres undefined)	6.86
CCN1C[C@H]2CCN(C(=O)Nc3ccccc3C)CC[C@H]2S1(=O)=O	-6.141
Cc1cccc(C2CCCN2C(=O)CN(C)S(C)(=O)=O)c1C (centres undefined)	4.288
Cc1cc(C)c2nc(CN3CCC(N4CCOC4=O)CC3)cc(O)c2c1	-2.248
Cc1ccc(S(=O)(=O)Nc2ccc(N3CCSCC3)c(C(=O)O)c2)s1	12.52
CCOCCN1CCN([C@@H]2c3ccccc3C3(CCNCC3)[C@H]2O)CC1	-9.523
CCN(Cc1noc(CC(C)C)n1)Cc1ccccc1OCC(=O)O	-9.276
CN(Cc1nnc(C2CC2)n1C)S(=O)(=O)c1ccccc1F	-5.512
O=C(C(CNCc1cccs1)c1ccccc1)N1CCOCC1 (centres undefined)	-10.52
CCC(CO)N(Cc1ccccn1)C(=O)c1ncccc1C (centres undefined)	-0.1279
CCc1nnc(Nc2cc(C)nc(C3CCN(c4ncccn4)C3)n2)s1 (centres undefined)	24.05
Fc1ccc(-c2ccc(CNC3CCc4ncnn4C3)o2)cc1 (centres undefined)	1.802
CC(NC1(CNC(=O)CC2CCCC2)CCOCC1)c1ccccc1 (centres undefined)	-6.277
CCn1ncc2c1C(COCC1CC1)CN(c1ccc(C)nn1)C2 (centres undefined)	-1.944
c1ccc(-c2nnc3ccc(N4CCC5(CCOC5)C4)nn23)cc1 (centres undefined)	-10.29
CCc1n[nH]c(C2CN(C(=O)c3cscn3)CCO2)n1 (centres undefined)	-5.91
C=CNC(=O)c1nnc2ccc(N3CCOCC3)cc2n1	20.6
COCCN(Cc1cccc(C#N)c1)Cc1nc(C)no1	-5.691
CC(=O)N1CCN(CCNS(=O)(=O)c2c(F)cccc2F)CC1	8.409
CS(=O)(=O)N1CCOCC2(CN(Cc3ccccn3)CCO2)C1 (centres undefined)	-0.06346
Cc1nc(CN2CCOC3(CCCN(c4nccs4)C3)C2)cs1 (centres undefined)	10.04
COc1cc(F)cc(NC(=O)NCc2cccc(N(C)C)n2)c1	-0.3346
CN(CCCc1n[nH]c(N)c1C#N)C(=O)Nc1cc(Cl)cc(Cl)c1	-2.214
COc1cc(CCC(=O)NCC2CC2)ccc1OCC(F)(F)F	-18.05
O=C(c1cnccn1)N1CCN(Cc2cscn2)CC1	-19.05
Cc1csc(N2CCN(C(=O)Cc3ccc(C)s3)CC2)n1	6.309
Cc1ccc(CN2CCC3(CCN(c4cnn(C)c4)C3=O)C2)s1 (centres undefined)	11.65
Cc1cc(C)c2nc(CN[C@H]3CCCNC3)cc(O)c2c1	-8.4
Cc1nc(-c2cccc(N3CCC(N4CCCC4)CC3)c2)cs1	-4.019
O=C(NC1CCCc2nc(N3CCCCC3)ncc21)C1CCCC1 (centres undefined)	-0.6054
CCc1ncc2c(n1)CN(Cc1nc(-c3ccco3)oc1C)CC2	-32.37
CCn1ncc(CNC(=O)c2cn(CCC3CCCCN3)nn2)c1C (centres undefined)	8.852
O=C1C(NS(=O)(=O)c2ccc(F)cc2)CCN1Cc1ccccc1 (centres undefined)	-13.19
NC(=O)NC(=O)CCN1CCCC1c1cccc2c1OCCO2 (centres undefined)	0.4191
O=C(c1ccncc1)N1CCn2c(nnc2-c2ccccc2)C1	-0.1259
COCCC(=O)N1CCC(c2ccc3c(NC(C)C)n[nH]c3n2)C1 (centres undefined)	-0.265
Cc1cc(Cl)c2c(c1)C1(NC(=O)c3cccnc3N1)C(=O)N2 (centres undefined)	-2.483
CN1CCN(C(=O)N2C[C@H]3CC[C@@H]2CN(Cc2ccccc2)C3)CC1	1.742
Cc1cncc(C2CCCN(CC3CCC3)C2)n1 (centres undefined)	-1.545

For reference, 6 entries once more:

| SMILES | Percent Effect |
|---|---|
| `O=C(c1ccncc1)N1CCn2c(nnc2-c2ccccc2)C1` | -0.1259 |
| `CCc1ncc2c(n1)CN(Cc1nc(-c3ccco3)oc1C)CC2` | -32.37 |
| `COc1cc(F)cc(NC(=O)NCc2cccc(N(C)C)n2)c1` | -0.3346 |
| `O=C(CCNC(=O)c1cnccn1)Nc1ncc[nH]1` | -1.458 |
| `CC(=O)N1CCN(CCNS(=O)(=O)c2c(F)cccc2F)CC1` | 8.409 |
| `CCn1ncc(CNC(=O)c2cn(CCC3CCCCN3)nn2)c1C` (centres undefined) | 8.852 |

Data taken from ChEMBL document CHEMBL3988442, “University of Dundee, Small-Polar-MMV Screening Library” (2021).